# Laboratory results as given in publication PMC8384837.
# Changes are numbered by the printed parent chain. Some of the results follow. For some of these results: At the low end of the ranking the order means little.
# Experiments:
# Details in all cases: yeast three-hybrid, YBZ-1, SC-Leu-His + 0.5 mM 3-AT, 4 days
# [1] = target: T1, PUM1 PUF domain R4-CNV N971C + H972N + Q975V (UniProt Q14671)
# T1 sequence: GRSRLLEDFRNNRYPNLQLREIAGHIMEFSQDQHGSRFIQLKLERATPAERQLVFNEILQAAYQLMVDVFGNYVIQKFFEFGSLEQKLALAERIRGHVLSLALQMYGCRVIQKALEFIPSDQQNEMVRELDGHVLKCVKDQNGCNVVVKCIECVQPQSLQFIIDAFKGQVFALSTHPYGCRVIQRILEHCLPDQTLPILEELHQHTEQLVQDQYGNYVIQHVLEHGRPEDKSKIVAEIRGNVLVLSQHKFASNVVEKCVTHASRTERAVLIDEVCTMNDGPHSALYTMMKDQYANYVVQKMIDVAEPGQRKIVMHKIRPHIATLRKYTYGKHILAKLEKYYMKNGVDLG
# [2] = target: T2, PUM1 PUF domain R4-CPG N971C + H972P + Q975G (UniProt Q14671)
# T2 sequence: T1 sequence with N145P, V148G
# [3] = target: T3, PUM1 PUF domain R4-CPL N971C + H972P + Q975L (UniProt Q14671)
# T3 sequence: T1 sequence with N145P, V148L
# [4] = target: T4, PUM1 PUF domain R4-CPT N971C + H972P + Q975T (Homo sapiens) (UniProt Q14671)
# T4 sequence: T1 sequence with N145P, V148T
# [5] = target: T5, PUM1 PUF domain R4-CPV N971C + H972P + Q975V (UniProt Q14671)
# T5 sequence: T1 sequence with N145P
# [6] = target: T6, PUM1 PUF domain R4-CRA N971C + H972R + Q975A (UniProt Q14671)
# T6 sequence: T1 sequence with N145R, V148A
# [7] = target: T7, PUM1 PUF domain R4-CRG N971C + H972R + Q975G (Homo sapiens) (UniProt Q14671)
# T7 sequence: T1 sequence with N145R, V148G
# [8] = target: T8, PUM1 PUF domain R4-CRL N971C + H972R + Q975L (Homo sapiens) (UniProt Q14671)
# T8 sequence: T1 sequence with N145R, V148L
# [9] = target: T9, PUM1 PUF domain R4-CRR N971C + H972R + Q975R (Homo sapiens) (UniProt Q14671)
# T9 sequence: T1 sequence with N145R, V148R
# [10] = target: T10, PUM1 PUF domain R4-CRS N971C + H972R + Q975S (UniProt Q14671)
# T10 sequence: T1 sequence with N145R, V148S
# [11] = target: T11, PUM1 PUF domain R4-CRV N971C + H972R + Q975V (Homo sapiens) (UniProt Q14671)
# T11 sequence: T1 sequence with N145R
# [12] = target: T12, PUM1 PUF domain R4-CYP N971C + H972Y + Q975P (UniProt Q14671)
# T12 sequence: T1 sequence with N145Y, V148P
# [13] = target: T13, PUM1 PUF domain R4-DFA N971D + H972F + Q975A (UniProt Q14671)
# T13 sequence: T1 sequence with C144D, N145F, V148A
# [14] = target: T14, PUM1 PUF domain R4-DFC N971D + H972F + Q975C (UniProt Q14671)
# T14 sequence: T1 sequence with C144D, N145F, V148C
# [15] = target: T15, PUM1 PUF domain R4-DFG N971D + H972F + Q975G (UniProt Q14671)
# T15 sequence: T1 sequence with C144D, N145F, V148G
# [16] = target: T16, PUM1 PUF domain R4-DFI N971D + H972F + Q975I (UniProt Q14671)
# T16 sequence: T1 sequence with C144D, N145F, V148I
# [17] = target: T17, PUM1 PUF domain R4-DFL N971D + H972F + Q975L (UniProt Q14671)
# T17 sequence: T1 sequence with C144D, N145F, V148L
# [18] = target: T18, PUM1 PUF domain R4-DFM N971D + H972F + Q975M (UniProt Q14671)
# T18 sequence: T1 sequence with C144D, N145F, V148M
# [19] = target: T19, PUM1 PUF domain R4-DFR N971D + H972F + Q975R (UniProt Q14671)
# T19 sequence: T1 sequence with C144D, N145F, V148R
# [20] = target: T20, PUM1 PUF domain R4-DFS N971D + H972F + Q975S (UniProt Q14671)
# T20 sequence: T1 sequence with C144D, N145F, V148S
# [21] = target: T21, PUM1 PUF domain R4-DFV N971D + H972F + Q975V (UniProt Q14671)
# T21 sequence: T1 sequence with C144D, N145F
# [22] = target: T22, PUM1 PUF domain R4-DHC N971D + Q975C (UniProt Q14671)
# T22 sequence: T1 sequence with C144D, N145H, V148C
# [23] = target: T23, PUM1 PUF domain R4-DHG N971D + Q975G (UniProt Q14671)
# T23 sequence: T1 sequence with C144D, N145H, V148G
# [24] = target: T24, PUM1 PUF domain R4-DHL N971D + Q975L (UniProt Q14671)
# T24 sequence: T1 sequence with C144D, N145H, V148L
# [25] = target: T25, PUM1 PUF domain R4-DHQ N971D (UniProt Q14671)
# T25 sequence: T1 sequence with C144D, N145H, V148Q
# [26] = target: T26, PUM1 PUF domain R4-DHR N971D + Q975R (UniProt Q14671)
# T26 sequence: T1 sequence with C144D, N145H, V148R
# [27] = target: T27, PUM1 PUF domain R4-DHS N971D + Q975S (UniProt Q14671)
# T27 sequence: T1 sequence with C144D, N145H, V148S
# [28] = target: T28, PUM1 PUF domain R4-DHT N971D + Q975T (UniProt Q14671)
# T28 sequence: T1 sequence with C144D, N145H, V148T
# [29] = target: T29, PUM1 PUF domain R4-DHV N971D + Q975V (UniProt Q14671)
# T29 sequence: T1 sequence with C144D, N145H
# [30] = target: T30, PUM1 PUF domain R4-DRC N971D + H972R + Q975C (UniProt Q14671)
# T30 sequence: T1 sequence with C144D, N145R, V148C
# [31] = target: T31, PUM1 PUF domain R4-DRG N971D + H972R + Q975G (UniProt Q14671)
# T31 sequence: T1 sequence with C144D, N145R, V148G
# [32] = target: T32, PUM1 PUF domain R4-DRI N971D + H972R + Q975I (UniProt Q14671)
# T32 sequence: T1 sequence with C144D, N145R, V148I
# [33] = target: T33, PUM1 PUF domain R4-DWA N971D + H972W + Q975A (UniProt Q14671)
# T33 sequence: T1 sequence with C144D, N145W, V148A
# [34] = target: T34, PUM1 PUF domain R4-DWG N971D + H972W + Q975G (UniProt Q14671)
# T34 sequence: T1 sequence with C144D, N145W, V148G
# [35] = target: T35, PUM1 PUF domain R4-DWI N971D + H972W + Q975I (UniProt Q14671)
# T35 sequence: T1 sequence with C144D, N145W, V148I
# [36] = target: T36, PUM1 PUF domain R4-DWL N971D + H972W + Q975L (UniProt Q14671)
# T36 sequence: T1 sequence with C144D, N145W, V148L
# [37] = target: T37, PUM1 PUF domain R4-DWM N971D + H972W + Q975M (UniProt Q14671)
# T37 sequence: T1 sequence with C144D, N145W, V148M
# [38] = target: T38, PUM1 PUF domain R4-DWR N971D + H972W + Q975R (UniProt Q14671)
# T38 sequence: T1 sequence with C144D, N145W, V148R
# [39] = target: T39, PUM1 PUF domain R4-DWS N971D + H972W + Q975S (UniProt Q14671)
# T39 sequence: T1 sequence with C144D, N145W, V148S
# [40] = target: T40, PUM1 PUF domain R4-DWV N971D + H972W + Q975V (UniProt Q14671)
# T40 sequence: T1 sequence with C144D, N145W
sequence,measurement,setting,value
GGCUAGAACUAGUGGAUCCCCCGGCGCCCGGCGGCUCGAGCCCGGGUAAGUGUAGAUAGUCUGCAUGCCGCCGGGCGCCAUGCCUGCAGGUCGACUCUAGAAAACAUG,binding signal (log2 enrichment (interaction score)),[1],< -6.9
same,binding signal (log2 enrichment (interaction score)),[2],< -5.62
same,binding signal (log2 enrichment (interaction score)),[3],< -7.27
same,binding signal (log2 enrichment (interaction score)),[4],-1.17
same,binding signal (log2 enrichment (interaction score)),[5],< -7.24
same,binding signal (log2 enrichment (interaction score)),[6],< -5.27
same,binding signal (log2 enrichment (interaction score)),[7],-4.23
same,binding signal (log2 enrichment (interaction score)),[8],-4.91
same,binding signal (log2 enrichment (interaction score)),[9],-6.39
same,binding signal (log2 enrichment (interaction score)),[10],< -5.87
same,binding signal (log2 enrichment (interaction score)),[11],-2.5
same,binding signal (log2 enrichment (interaction score)),[12],< -4.71
same,binding signal (log2 enrichment (interaction score)),[13],< -5.83
same,binding signal (log2 enrichment (interaction score)),[14],< -5.94
same,binding signal (log2 enrichment (interaction score)),[15],< -6.03
same,binding signal (log2 enrichment (interaction score)),[16],< -5.94
same,binding signal (log2 enrichment (interaction score)),[17],< -7.74
same,binding signal (log2 enrichment (interaction score)),[18],< -6.35
same,binding signal (log2 enrichment (interaction score)),[19],< -6.79
same,binding signal (log2 enrichment (interaction score)),[20],< -7.5
same,binding signal (log2 enrichment (interaction score)),[21],< -7.56
same,binding signal (log2 enrichment (interaction score)),[22],< -5.62
same,binding signal (log2 enrichment (interaction score)),[23],< -6.19
same,binding signal (log2 enrichment (interaction score)),[24],< -5.43
same,binding signal (log2 enrichment (interaction score)),[25],-2.77
same,binding signal (log2 enrichment (interaction score)),[26],< -6.64
same,binding signal (log2 enrichment (interaction score)),[27],< -6.61
same,binding signal (log2 enrichment (interaction score)),[28],< -6.75
same,binding signal (log2 enrichment (interaction score)),[29],< -7.26
same,binding signal (log2 enrichment (interaction score)),[30],< -7.23
same,binding signal (log2 enrichment (interaction score)),[31],< -8.85
same,binding signal (log2 enrichment (interaction score)),[32],< -5.39
same,binding signal (log2 enrichment (interaction score)),[33],< -5.33
same,binding signal (log2 enrichment (interaction score)),[34],< -6.87
same,binding signal (log2 enrichment (interaction score)),[35],< -6.97
same,binding signal (log2 enrichment (interaction score)),[36],< -5.67
same,binding signal (log2 enrichment (interaction score)),[37],< -5.62
same,binding signal (log2 enrichment (interaction score)),[38],< -7.33
same,binding signal (log2 enrichment (interaction score)),[39],< -6.32
same,binding signal (log2 enrichment (interaction score)),[40],< -6.81

# Not a retest: entries from further up.
sequence,measurement,setting,value
GGCUAGAACUAGUGGAUCCCCCGGCGCCCGGCGGCUCGAGCCCGGGUAAGUGUAGAUAGUCUGCAUGCCGCCGGGCGCCAUGCCUGCAGGUCGACUCUAGAAAACAUG,binding signal (log2 enrichment (interaction score)),[1],< -6.9
same,binding signal (log2 enrichment (interaction score)),[2],< -5.62
same,binding signal (log2 enrichment (interaction score)),[3],< -7.27
same,binding signal (log2 enrichment (interaction score)),[4],-1.17
same,binding signal (log2 enrichment (interaction score)),[5],< -7.24
same,binding signal (log2 enrichment (interaction score)),[6],< -5.27
same,binding signal (log2 enrichment (interaction score)),[7],-4.23
same,binding signal (log2 enrichment (interaction score)),[8],-4.91
same,binding signal (log2 enrichment (interaction score)),[9],-6.39
same,binding signal (log2 enrichment (interaction score)),[10],< -5.87
same,binding signal (log2 enrichment (interaction score)),[11],-2.5
same,binding signal (log2 enrichment (interaction score)),[12],< -4.71
